{"source": "patent US4605514A", "about": "“Des-4-leucine-calcitonin” (Armour Pharmaceutical Company, priority 1984, dated 1986)", "test_system": "Rats", "experiment": "Biological assay of calcitonin analogs in vivo: reduction of serum calcium concentration vs synthetic salmon calcitonin standard, 2×2 parallel line assay", "conditions": "subcutaneous injection, blood withdrawn 1 hour later, compared with synthetic salmon calcitonin standard", "description": "Biological Assay Of Calcitonin Analogs In Vivo\nThe biological potency of des-4-leucine-salmon calcitonin was determined by comparing the reduction of serum calcium concentration which followed administration by graded doses of des-Leu^4 -SCT and synthetic salmon calcitonin standard. Rats were divided into four groups of seven animals, and each group was assigned at random to a dose of standard or test solution. Low and high doses were chosen from the linear portion of the dose-response curve. For the salmon calcitonin standard, the values were 0.7 and 2.1 ng. peptide/100 g. body weight (BW). This dose approximates 3 and […]/100 g. BW. Peptides were given by subcutaneous injection (0.2 ml/100 g. BW) and blood was withdrawn 1 hour later for serum calcium determination. Sera are processed and analyzed within two hours of collection. […]. Results were analyzed by a 2×2 parallel line assay [Gaddum, J. H., J. Pharm. Pharmacol., 6, 345 (1953)]. The standard salmon calcitonin used was independently determined to contain greater than 4,000 IU/mg. des-Leu^4 -SCT assayed at 5400 IU/mg.", "note": "Part of at least one peptide drawing is inferred or uncertain, most often the ends. Bridge positions count the residues as written; N and C are the ends. Peptide text beside a SMILES is read from it.", "data": [{"smiles": "CC(C)C[C@H](NC(=O)[C@H](CCCCN)NC(=O)CNC(=O)[C@H](CC(C)C)NC(=O)[C@@H](NC(=O)[C@@H]1CSSC[C@H](N)C(=O)N[C@@H](CO)C(=O)N[C@@H](CC(N)=O)C(=O)N[C@@H](CO)C(=O)N[C@@H]([C@@H](C)O)C(=O)N1)C(C)C)C(=O)N[C@@H](CO)C(=O)N[C@@H](CCC(N)=O)C(=O)N[C@@H](CCC(=O)O)C(=O)N[C@@H](CC(C)C)C(=O)N[C@@H](Cc1c[nH]cn1)C(=O)N[C@@H](CCCCN)C(=O)N[C@@H](CC(C)C)C(=O)N[C@@H](CCC(N)=O)C(=O)N[C@H](C(=O)N[C@@H](Cc1ccc(O)cc1)C(=O)N1CCC[C@H]1C(=O)N[C@@H](CCCNC(=N)N)C(=O)N[C@H](C(=O)N[C@@H](CC(N)=O)C(=O)N[C@H](C(=O)NCC(=O)N[C@@H](CO)C(=O)NCC(=O)N[C@H](C(=O)N1CCC[C@H]1C(N)=O)[C@@H](C)O)[C@@H](C)O)[C@@H](C)O)[C@@H](C)O", "note": "[des-Leu^4 -SCT, des-4-leucine-salmon calcitonin] (H-CSNSTCVLGKLSQELHKLQTYPRTNTGSGTP-NH2; disulfide 1-6)", "values": [{"measurement": "biological potency (reduction of serum calcium concentration)", "result": 5400, "unit": "IU/mg"}]}]}
